Paper PMC6733801
Results are given in words; binding and its absence hold for the method and conditions named. Binding seen in cells or lysates may run through a third protein. Some binding calls cover weakened binding; strength is not graded here.

The chains behind the UniProt entries cited, without tags or fusion partners. Residues count along the entry.
UniProt Q9QUN7, residues 25-784: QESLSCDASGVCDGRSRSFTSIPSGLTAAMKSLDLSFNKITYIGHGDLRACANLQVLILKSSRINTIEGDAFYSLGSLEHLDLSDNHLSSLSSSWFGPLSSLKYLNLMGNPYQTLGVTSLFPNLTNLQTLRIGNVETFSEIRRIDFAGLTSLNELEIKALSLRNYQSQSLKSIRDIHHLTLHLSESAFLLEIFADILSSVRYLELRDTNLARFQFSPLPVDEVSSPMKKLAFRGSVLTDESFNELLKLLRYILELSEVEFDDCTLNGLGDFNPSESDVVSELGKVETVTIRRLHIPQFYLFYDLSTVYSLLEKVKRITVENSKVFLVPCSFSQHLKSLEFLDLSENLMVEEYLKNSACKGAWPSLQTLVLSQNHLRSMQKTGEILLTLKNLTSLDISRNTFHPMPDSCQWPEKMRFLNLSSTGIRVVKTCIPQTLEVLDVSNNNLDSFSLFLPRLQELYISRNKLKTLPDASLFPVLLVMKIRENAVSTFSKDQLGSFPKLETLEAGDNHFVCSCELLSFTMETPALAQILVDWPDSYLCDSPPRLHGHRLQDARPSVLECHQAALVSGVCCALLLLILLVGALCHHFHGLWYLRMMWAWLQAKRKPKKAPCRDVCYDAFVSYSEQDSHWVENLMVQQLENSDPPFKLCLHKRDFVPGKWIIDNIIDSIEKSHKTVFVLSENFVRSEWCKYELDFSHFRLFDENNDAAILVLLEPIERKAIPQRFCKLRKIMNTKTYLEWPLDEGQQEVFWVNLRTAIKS
UniProt Q08857: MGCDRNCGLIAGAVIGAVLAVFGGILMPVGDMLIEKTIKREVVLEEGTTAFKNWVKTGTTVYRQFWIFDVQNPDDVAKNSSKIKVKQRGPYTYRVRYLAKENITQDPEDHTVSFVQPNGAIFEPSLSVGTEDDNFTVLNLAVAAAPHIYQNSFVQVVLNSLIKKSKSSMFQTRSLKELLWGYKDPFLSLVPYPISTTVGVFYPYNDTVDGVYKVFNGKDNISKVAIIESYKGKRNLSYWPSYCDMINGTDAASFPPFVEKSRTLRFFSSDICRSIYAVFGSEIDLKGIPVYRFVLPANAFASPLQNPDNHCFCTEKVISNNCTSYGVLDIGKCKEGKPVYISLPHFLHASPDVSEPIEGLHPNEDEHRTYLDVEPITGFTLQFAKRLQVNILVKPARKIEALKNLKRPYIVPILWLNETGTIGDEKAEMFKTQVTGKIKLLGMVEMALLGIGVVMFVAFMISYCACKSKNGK

Experiments:
[1] = target: Toll-like receptor 2 (TLR2) (mouse (endogenous in peritoneal macrophages and RAW 264.7)) (UniProt Q9QUN7); test: FRET or BRET; acceptor photobleaching on fixed cells, confocal LSM-700; TLR2 antibody coupled to Cy3 (donor) and CD36 antibody coupled to Cy5 (acceptor); peritoneal macrophages or RAW 264.7 MPs stimulated with R-FSL1 (300 ng/mL) for 5 min, with or without MPE-001 (10^-7 M)
[2] = target: cluster of differentiation 36 receptor (CD36) (mouse (endogenous in peritoneal macrophages and RAW 264.7)) (UniProt Q08857); test: FRET or BRET; same experiment as a1: MPE-001 (10^-7 M) added to peritoneal macrophages or RAW 264.7 MPs stimulated with R-FSL1 (300 ng/mL) for 5 min; read-out is the loss of CD36-TLR2 energy transfer; only the binder purified

binding [1]	binding [2]	Molecule
binds		cluster of differentiation 36 receptor (CD36) (from UniProt Q08857 1-472)
	binds	HWAYFK (D-Trp at 2, aza-Tyr at 4, D-Phe at 5) [CD36 azapeptide modulator [azaY4]-GHRP-6 (MPE-001)]
